Assay results as given in doi:10.1101/566836.
The exact form of at least one protein or probe is not confirmed. Negatives hold for the conditions tested.

System: Nucb1 (Nucleobindin-1)
Test: EMSA
Conditions: 2 uM oligo

Sequence | binding result
TTTCTCTCTTTTCACGAGGGGGATAATAAT (double strand) [E2 (non-E-box CACGAG)] | no binding
TTTCTCTCTTTTAACGTGGGGGATAATAAT (double strand) [E3 (non-E-box AACGTG)] | no binding
